Data: the supplement of paper PMC10849652
The list shows a part of the results.

Chains of the proteins cited; added tags and fusions are not shown. Lines headed by an entry give the natural chain unless they say otherwise; changes in a name come on top.
UniProt P48444: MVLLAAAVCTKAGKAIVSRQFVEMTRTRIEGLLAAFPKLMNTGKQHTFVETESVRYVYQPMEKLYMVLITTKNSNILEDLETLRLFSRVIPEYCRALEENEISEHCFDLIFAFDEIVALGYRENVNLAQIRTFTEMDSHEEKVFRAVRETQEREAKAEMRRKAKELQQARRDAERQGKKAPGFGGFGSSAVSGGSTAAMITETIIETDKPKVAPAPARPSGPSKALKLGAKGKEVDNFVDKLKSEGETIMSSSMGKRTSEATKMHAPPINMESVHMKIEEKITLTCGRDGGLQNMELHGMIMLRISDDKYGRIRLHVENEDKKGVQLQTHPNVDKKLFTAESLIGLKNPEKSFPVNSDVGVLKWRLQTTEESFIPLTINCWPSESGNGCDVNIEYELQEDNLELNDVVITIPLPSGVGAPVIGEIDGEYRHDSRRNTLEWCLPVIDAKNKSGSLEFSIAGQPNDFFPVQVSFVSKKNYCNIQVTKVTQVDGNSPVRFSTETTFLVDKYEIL
UniProt O14617: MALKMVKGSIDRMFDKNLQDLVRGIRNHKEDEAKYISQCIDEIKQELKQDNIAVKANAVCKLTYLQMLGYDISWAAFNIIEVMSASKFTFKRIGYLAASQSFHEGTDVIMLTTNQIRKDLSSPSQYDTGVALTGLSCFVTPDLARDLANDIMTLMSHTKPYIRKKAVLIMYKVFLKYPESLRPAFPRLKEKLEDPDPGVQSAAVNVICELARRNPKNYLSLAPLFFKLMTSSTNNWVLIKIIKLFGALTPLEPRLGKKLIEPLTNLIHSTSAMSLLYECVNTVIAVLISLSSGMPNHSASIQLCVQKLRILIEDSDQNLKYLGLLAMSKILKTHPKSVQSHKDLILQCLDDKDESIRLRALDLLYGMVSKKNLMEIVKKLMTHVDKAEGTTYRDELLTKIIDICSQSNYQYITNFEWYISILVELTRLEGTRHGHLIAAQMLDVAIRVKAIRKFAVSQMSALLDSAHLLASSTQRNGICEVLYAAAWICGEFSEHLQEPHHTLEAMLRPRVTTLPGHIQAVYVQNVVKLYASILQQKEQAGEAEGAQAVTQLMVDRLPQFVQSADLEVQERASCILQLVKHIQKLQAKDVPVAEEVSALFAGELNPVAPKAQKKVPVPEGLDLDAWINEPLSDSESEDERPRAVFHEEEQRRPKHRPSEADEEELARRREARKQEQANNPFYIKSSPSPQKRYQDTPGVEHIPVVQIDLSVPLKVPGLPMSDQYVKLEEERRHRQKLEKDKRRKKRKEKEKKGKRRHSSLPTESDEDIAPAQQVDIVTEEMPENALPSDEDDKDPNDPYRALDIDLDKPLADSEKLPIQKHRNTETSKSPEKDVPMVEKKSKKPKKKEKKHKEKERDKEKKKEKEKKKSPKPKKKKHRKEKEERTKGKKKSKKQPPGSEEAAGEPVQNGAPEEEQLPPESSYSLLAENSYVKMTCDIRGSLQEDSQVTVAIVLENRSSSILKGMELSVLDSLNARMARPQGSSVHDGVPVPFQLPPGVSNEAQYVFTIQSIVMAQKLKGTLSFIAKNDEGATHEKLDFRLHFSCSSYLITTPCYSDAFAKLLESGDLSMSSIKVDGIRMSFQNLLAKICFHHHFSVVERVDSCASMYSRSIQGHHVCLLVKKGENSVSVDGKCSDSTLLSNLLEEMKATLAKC
UniProt Q8IV38: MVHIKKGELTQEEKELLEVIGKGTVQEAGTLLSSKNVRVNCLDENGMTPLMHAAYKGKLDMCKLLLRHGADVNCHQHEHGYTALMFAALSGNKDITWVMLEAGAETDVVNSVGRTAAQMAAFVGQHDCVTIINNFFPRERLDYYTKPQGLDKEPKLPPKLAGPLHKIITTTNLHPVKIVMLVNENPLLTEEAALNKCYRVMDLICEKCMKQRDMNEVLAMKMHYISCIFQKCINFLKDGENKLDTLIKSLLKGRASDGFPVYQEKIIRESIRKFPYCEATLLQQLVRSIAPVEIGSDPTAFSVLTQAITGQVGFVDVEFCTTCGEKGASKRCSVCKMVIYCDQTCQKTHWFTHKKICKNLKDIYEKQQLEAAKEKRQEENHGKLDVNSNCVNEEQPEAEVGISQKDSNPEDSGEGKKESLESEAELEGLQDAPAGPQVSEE
UniProt Q13795: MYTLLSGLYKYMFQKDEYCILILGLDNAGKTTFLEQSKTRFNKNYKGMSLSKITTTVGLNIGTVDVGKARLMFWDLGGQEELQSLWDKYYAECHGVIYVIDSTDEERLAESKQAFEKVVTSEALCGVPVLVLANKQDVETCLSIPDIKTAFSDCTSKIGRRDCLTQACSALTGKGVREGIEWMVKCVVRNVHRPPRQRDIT
UniProt Q9Y2T2: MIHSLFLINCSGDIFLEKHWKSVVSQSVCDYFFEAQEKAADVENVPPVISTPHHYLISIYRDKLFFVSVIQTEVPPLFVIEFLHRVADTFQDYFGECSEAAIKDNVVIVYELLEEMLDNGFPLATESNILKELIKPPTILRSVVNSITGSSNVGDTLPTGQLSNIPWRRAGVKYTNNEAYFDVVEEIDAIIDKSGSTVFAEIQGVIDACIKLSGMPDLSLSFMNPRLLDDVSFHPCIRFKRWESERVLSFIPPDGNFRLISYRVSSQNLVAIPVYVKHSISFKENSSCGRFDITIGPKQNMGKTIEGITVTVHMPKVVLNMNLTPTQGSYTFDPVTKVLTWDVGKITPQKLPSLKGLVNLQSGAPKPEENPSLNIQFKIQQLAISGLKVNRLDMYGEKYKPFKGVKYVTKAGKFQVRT
UniProt Q92974: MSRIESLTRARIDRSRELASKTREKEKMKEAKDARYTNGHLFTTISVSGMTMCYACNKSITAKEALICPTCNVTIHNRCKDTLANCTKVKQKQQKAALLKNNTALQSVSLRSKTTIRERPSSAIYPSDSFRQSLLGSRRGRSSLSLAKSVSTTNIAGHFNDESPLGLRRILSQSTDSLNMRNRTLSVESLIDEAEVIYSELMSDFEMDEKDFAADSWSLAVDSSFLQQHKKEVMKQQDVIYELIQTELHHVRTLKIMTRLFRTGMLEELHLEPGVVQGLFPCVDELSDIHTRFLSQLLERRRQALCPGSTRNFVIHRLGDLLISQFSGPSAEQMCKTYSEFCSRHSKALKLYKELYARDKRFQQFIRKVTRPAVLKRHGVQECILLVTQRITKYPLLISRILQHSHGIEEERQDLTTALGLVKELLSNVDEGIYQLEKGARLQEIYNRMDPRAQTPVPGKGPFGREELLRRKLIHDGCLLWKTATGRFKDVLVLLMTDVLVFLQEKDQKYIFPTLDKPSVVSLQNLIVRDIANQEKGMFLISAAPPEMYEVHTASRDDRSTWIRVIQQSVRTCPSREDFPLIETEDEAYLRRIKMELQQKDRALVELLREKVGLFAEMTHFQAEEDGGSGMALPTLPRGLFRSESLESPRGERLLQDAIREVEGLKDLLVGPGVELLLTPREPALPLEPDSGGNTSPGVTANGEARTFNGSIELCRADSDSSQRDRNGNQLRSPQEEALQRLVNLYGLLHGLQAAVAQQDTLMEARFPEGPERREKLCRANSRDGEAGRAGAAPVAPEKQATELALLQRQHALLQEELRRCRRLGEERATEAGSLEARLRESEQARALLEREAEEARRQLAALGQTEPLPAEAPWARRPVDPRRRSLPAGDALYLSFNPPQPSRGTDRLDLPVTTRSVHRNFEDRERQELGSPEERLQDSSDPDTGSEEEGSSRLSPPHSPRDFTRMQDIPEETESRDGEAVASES
UniProt O94973, whole entry, looked up: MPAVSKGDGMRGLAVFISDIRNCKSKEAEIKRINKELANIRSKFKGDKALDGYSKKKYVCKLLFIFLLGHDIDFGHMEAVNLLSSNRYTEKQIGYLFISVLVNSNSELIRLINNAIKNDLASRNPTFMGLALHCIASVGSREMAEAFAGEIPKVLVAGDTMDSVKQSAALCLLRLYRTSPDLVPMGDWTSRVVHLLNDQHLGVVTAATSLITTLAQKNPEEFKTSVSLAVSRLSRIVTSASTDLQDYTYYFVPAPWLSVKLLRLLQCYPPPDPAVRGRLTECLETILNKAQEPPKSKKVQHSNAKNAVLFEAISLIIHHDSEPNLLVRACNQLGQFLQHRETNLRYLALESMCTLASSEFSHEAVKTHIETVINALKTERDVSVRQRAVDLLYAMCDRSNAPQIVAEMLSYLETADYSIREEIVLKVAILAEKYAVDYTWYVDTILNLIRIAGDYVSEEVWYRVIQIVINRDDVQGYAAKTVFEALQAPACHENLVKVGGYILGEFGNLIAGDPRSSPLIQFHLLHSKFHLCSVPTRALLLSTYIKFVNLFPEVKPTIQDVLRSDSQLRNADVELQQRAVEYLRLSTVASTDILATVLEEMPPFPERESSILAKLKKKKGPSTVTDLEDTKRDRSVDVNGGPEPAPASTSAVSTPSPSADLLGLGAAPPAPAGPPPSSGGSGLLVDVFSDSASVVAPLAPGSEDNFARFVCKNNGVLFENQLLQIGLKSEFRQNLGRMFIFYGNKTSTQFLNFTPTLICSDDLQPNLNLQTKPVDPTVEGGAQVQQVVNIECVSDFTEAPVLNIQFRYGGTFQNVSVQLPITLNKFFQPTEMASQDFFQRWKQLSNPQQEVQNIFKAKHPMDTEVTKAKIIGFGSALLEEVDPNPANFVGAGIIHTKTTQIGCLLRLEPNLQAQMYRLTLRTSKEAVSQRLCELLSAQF
UniProt Q0VD83: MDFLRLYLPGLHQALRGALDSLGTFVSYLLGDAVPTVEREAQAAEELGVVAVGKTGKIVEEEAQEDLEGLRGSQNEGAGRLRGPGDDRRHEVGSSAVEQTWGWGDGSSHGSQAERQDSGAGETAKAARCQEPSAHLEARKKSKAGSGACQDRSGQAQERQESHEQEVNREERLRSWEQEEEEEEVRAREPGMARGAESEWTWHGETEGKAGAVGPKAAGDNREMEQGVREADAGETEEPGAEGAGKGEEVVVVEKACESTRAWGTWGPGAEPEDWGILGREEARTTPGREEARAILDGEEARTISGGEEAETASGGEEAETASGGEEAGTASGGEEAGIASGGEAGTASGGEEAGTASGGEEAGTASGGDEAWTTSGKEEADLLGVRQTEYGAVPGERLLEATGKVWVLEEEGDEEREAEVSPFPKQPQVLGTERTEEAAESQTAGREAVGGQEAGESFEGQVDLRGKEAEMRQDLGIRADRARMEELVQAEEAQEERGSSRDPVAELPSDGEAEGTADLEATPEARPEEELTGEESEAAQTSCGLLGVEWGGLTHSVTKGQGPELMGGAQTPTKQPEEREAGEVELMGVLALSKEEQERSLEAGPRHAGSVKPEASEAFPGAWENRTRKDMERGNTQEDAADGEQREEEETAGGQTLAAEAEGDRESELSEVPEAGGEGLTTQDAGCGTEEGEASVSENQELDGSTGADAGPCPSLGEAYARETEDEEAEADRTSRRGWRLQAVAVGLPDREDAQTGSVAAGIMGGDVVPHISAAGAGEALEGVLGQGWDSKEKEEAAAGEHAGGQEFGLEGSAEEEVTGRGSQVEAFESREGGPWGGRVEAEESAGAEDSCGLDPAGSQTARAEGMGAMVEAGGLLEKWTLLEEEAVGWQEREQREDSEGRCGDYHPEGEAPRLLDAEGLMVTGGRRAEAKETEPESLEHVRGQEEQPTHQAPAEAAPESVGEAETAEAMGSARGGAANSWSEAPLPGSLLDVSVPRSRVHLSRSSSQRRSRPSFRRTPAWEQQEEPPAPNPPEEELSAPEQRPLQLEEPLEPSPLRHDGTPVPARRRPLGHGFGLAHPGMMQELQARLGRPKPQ
UniProt Q8IWW6: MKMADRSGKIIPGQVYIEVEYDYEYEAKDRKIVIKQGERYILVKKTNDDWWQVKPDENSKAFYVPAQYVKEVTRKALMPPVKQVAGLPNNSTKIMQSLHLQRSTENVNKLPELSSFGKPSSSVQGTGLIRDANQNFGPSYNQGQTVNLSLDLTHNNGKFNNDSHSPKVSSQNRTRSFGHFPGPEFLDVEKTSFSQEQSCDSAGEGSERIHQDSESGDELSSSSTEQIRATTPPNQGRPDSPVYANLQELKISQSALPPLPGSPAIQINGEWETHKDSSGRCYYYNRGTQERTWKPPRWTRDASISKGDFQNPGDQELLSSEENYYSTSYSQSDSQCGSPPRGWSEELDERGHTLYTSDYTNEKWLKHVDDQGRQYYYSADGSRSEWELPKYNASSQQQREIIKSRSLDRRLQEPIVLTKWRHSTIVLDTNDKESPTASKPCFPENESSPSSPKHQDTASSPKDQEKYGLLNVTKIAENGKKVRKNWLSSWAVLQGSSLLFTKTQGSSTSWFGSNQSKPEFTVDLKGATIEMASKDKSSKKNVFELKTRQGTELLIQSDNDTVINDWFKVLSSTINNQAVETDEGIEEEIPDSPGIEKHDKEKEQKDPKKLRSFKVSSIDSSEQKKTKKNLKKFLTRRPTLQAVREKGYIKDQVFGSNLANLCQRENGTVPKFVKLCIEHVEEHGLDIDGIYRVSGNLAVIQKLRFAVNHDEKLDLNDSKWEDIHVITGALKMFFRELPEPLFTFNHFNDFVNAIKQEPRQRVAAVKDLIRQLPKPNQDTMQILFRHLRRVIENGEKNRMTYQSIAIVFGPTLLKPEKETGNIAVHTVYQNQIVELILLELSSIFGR

Columns and labels:
Experiment in all cases: log2 fold change, soluble protein after heating vs DMSO (PISA); higher = thermal stabilisation; K562 cells, 10 uM, 30 min; active = over 0.2 and 3.5 SD of the protein, either way, in both replicates (recomputed)
[1] = compound: CC1=C(C=C(C=C1)NC(=O)C2=CC(=CC=C2)C(C)(C)C#N)NC3=CC4=C(C=C3)N=CN(C4=O)C
Summary of the method: (§1)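 K562 cells at 2×10^6 cells/mL were given 10 μM compound for 30 min. Aliquots then went through 3 min of heating across 48°C-58°C, were pooled, and were extracted in PBS with 0.5% NP-40 at 4°C, and the supernatant after 21,000xg for 90 min was quantified by TMTpro 16plex LC-MS/MS with channel sums equalised. Thermal stability relative to control samples, from duplicates, is given as log2 fold change.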

[2] = compound: CC1=C(C=C(C=C1)NC(=O)C2=CC(=CC=C2)N(C)C)NC(=O)C3=CC=C(C=C3)O
Summary of the method: as §1

[3] = compound: CC1=CC=C(C=C1)SC2=C3C=C(SC3=CN=C2)C(=O)N
Summary of the method: as §1

[4] = compound: CC1=NC(=CC=C1)C2=C(N=C(N2)C(C)(C)C)C3=CC4=NC=CN=C4C=C3
Summary of the method: as §1

[5] = compound: CCCCN(Cc1ccc(C(=O)NO)cc1)C(=O)Nc1ccccc1 [Nexturastat A]
Summary of the method: as §1

[6] = compound: CCCS(=O)(=O)Nc1ccc(F)c(C(=O)c2c[nH]c3ncc(-c4ccc(Cl)cc4)cc23)c1F [vemurafenib]
Summary of the method: as §1

[7] = compound: CCCS(=O)(=O)Nc1ccc(F)c(C(=O)c2c[nH]c3ncc(Cl)cc23)c1F
Summary of the method: as §1

[8] = compound: CCCc1cc(C)[nH]c(=O)c1CNC(=O)c1cc(-c2ccnc(N3CCN(C)CC3)c2)cc2c1cnn2C(C)C
Summary of the method: as §1

[9] = compound: CCN(CC)Cc1ccc2cc(COC(=O)Nc3ccc(C(=O)NO)cc3)ccc2c1 [givinostat]
Summary of the method: as §1

[10] = compound: CCN(CCCOc1ccc2c(Nc3cc(CC(=O)Nc4cccc(F)c4)[nH]n3)ncnc2c1)CCOP(=O)(O)O [barasertib]
Summary of the method: as §1

Measured: log2 fold change

ARCN1 (UniProt P48444)
inactive: [1] 0.001 | [2] -0.02 | [3] 0 | [4] 0.001 | [5] -0.025 | [6] 0.051 | [7] 0.033 | [8] -0.007 | [9] -0.009 | [10] 0.022

AP3D1 isoform 5 (UniProt O14617)
inactive: [1] 0.022 | [2] -0.051 | [3] 0.039 | [4] 0.022 | [5] 0.039 | [6] 0.102 | [7] 0.099 | [8] 0.008 | [9] 0.02 | [10] 0.009

ANKMY2 (UniProt Q8IV38)
inactive: [1] 0.032 | [2] -0.036 | [3] 0.024 | [4] 0.057 | [5] -0.068 | [6] 0.004 | [7] 0.073 | [8] 0.039 | [9] 0.019 | [10] 0.003

ANP32B (UniProt Q92688)
inactive: [1] -0.069 | [2] 0.009 | [3] 0.004 | [4] 0.02 | [5] -0.034 | [6] 0.001 | [7] 0 | [8] -0.024 | [9] 0.002 | [10] 0.017

ARHGAP45 isoform 2 (UniProt Q92619)
inactive: [1] 0.069 | [2] -0.073 | [3] 0.01 | [4] -0.031 | [5] 0.042 | [6] -0.045 | [7] 0.012 | [8] -0.178 | [9] 0.007 | [10] 0.051

ANKRD13A (UniProt Q8IZ07)
inactive: [1] 0.023 | [2] 0.051 | [3] -0.01 | [4] -0.159 | [5] 0.018 | [6] -0.012 | [7] -0.033 | [8] 0.105 | [9] -0.003 | [10] 0.014

ANXA3 (UniProt P12429)
inactive: [1] -0.04 | [2] 0.003 | [3] 0.009 | [4] -0.014 | [5] -0.059 | [6] 0 | [7] 0.012 | [8] -0.002 | [9] 0.008 | [10] 0.032

ARFRP1 (UniProt Q13795)
inactive: [1] 0.138 | [2] 0.003 | [3] 0.082 | [4] 0.069 | [5] -0.048 | [6] 0.033 | [7] 0 | [8] 0.046 | [9] 0.012 | [10] -0.015

ANXA1 (UniProt P04083)
inactive: [1] 0.109 | [2] -0.112 | [3] 0.024 | [4] 0.056 | [5] -0.007 | [6] 0.046 | [7] 0.048 | [8] 0.016 | [9] 0.077 | [10] 0.064

AP2S1 (UniProt P53680)
inactive: [1] 0.009 | [2] -0.028 | [3] -0.036 | [4] 0.037 | [5] -0.038 | [6] 0.002 | [7] 0.03 | [8] 0.007 | [9] -0.015 | [10] -0.034

ARFGAP2 (UniProt Q8N6H7)
inactive: [1] 0.03 | [2] -0.065 | [3] -0.027 | [4] -0.04 | [5] -0.033 | [6] 0.02 | [7] 0.033 | [8] 0.021 | [9] 0.06 | [10] 0.066

AP1M1 (UniProt Q9BXS5)
inactive: [1] 0.02 | [2] -0.037 | [3] -0.008 | [4] -0.003 | [5] 0.065 | [6] 0.005 | [7] 0.019 | [8] 0.04 | [9] 0.022 | [10] 0.02

ARID1A (UniProt O14497)
inactive: [1] 0.292 | [2] -0.23 | [3] 0.188 | [4] 0.258 | [5] -0.127 | [6] 0.128 | [7] -0.142 | [8] -0.033 | [9] 0.136 | [10] 0.099

AP3M1 (UniProt Q9Y2T2)
inactive: [1] 0.018 | [2] -0.063 | [3] -0.002 | [4] 0.032 | [5] -0.008 | [6] 0.041 | [7] 0.045 | [8] 0.027 | [9] 0.038 | [10] 0.071

ARHGEF2 (UniProt Q92974)
inactive: [1] 0.004 | [2] -0.022 | [3] 0.062 | [4] -0.07 | [5] 0.476 | [6] -0.024 | [7] 0.029 | [8] 0.186 | [9] 0.164 | [10] 0.013

ARHGAP17 (UniProt Q68EM7)
inactive: [1] -0.13 | [2] -0.048 | [3] 0.021 | [4] 0.068 | [5] 0.037 | [6] -0.032 | [7] 0.118 | [8] 0.107 | [9] 0.153 | [10] 0.018

AP2A2 isoform 2 (UniProt O94973)
inactive: [1] 0.084 | [2] 0 | [3] 0.01 | [4] 0.049 | [5] 0.004 | [6] -0.008 | [7] 0.002 | [8] 0.038 | [9] 0.003 | [10] 0.002

ARHGEF1 isoform 3 (UniProt Q92888)
inactive: [1] 0 | [2] -0.023 | [3] 0.008 | [4] -0.014 | [5] 0.224 | [6] 0.089 | [7] 0.042 | [8] 0.045 | [9] 0.124 | [10] 0.047

ANLN (UniProt Q9NQW6)
inactive: [1] -0.13 | [2] 0.05 | [3] -0.144 | [4] -0.078 | [5] 0.023 | [6] 0.075 | [7] -0.233 | [8] 0.005 | [9] 0.059 | [10] 0.261

APEX1 (UniProt P27695)
inactive: [1] 0.045 | [2] -0.071 | [3] 0.03 | [4] 0.068 | [5] -0.038 | [6] 0.039 | [7] 0.065 | [8] 0.101 | [9] 0.001 | [10] 0.021

APOB (UniProt P04114)
inactive: [1] -0.039 | [2] 0.134 | [3] 0.146 | [4] 0.032 | [5] -0.049 | [6] -0.006 | [7] 0.095 | [9] 0.074 | [10] -0.012
active: [8] -0.853

ARFIP2 (UniProt P53365)
inactive: [1] -0.08 | [2] -0.07 | [3] 0.06 | [4] -0.013 | [5] -0.028 | [6] 0.007 | [7] 0.127 | [8] -0.063 | [9] 0.001 | [10] 0.08

Random excerpt: 2 entries already listed
APEX1 (UniProt P27695)
inactive: [1] 0.045 | [2] -0.071 | [3] 0.03 | [4] 0.068 | [5] -0.038 | [6] 0.039 | [7] 0.065 | [8] 0.101 | [9] 0.001 | [10] 0.021

APOB (UniProt P04114)
inactive: [1] -0.039 | [2] 0.134 | [3] 0.146 | [4] 0.032 | [5] -0.049 | [6] -0.006 | [7] 0.095 | [9] 0.074 | [10] -0.012
active: [8] -0.853

Next results.

ANAPC5 (UniProt Q9UJX4)
inactive: [1] -0.027 | [2] 0.006 | [3] -0.005 | [4] -0.025 | [5] 0.085 | [6] -0.007 | [7] 0.002 | [8] 0.019 | [9] 0.011 | [10] 0.002

APOA1 (UniProt P02647)
inactive: [1] -0.113 | [2] -0.001 | [3] -0.019 | [4] 0.063 | [5] -0.132 | [6] 0.12 | [7] -0.268 | [8] -0.051 | [9] -0.073 | [10] 0.017

APPL1 (UniProt Q9UKG1)
inactive: [1] 0.012 | [2] 0.008 | [3] 0.035 | [4] 0.015 | [5] -0.032 | [6] 0.066 | [7] 0.017 | [8] -0.033 | [9] 0.039 | [10] 0.02

APOBR (UniProt Q0VD83)
inactive: [1] -0.039 | [2] 0.002 | [3] 0.034 | [4] -0.069 | [5] -0.079 | [6] -0.043 | [7] 0.021 | [8] -0.005 | [9] -0.023 | [10] -0.012

ARHGAP12 (UniProt Q8IWW6)
inactive: [1] -0.008 | [2] 0.002 | [3] 0.012 | [4] -0.129 | [5] 0.301 | [6] -0.045 | [7] 0.005 | [8] 0.011 | [9] 0.111 | [10] -0.026

ANK1 isoform 14 (UniProt P16157)
inactive: [1] 0.047 | [2] 0.089 | [3] -0.079 | [4] -0.136 | [5] 0.332 | [6] 0.033 | [7] -0.063 | [8] 0.107 | [9] 0.258 | [10] 0.061

APRT (UniProt P07741)
inactive: [1] -0.042 | [2] 0.014 | [3] 0.021 | [4] 0 | [5] -0.01 | [6] -0.031 | [7] 0.001 | [8] -0.018 | [9] -0.006 | [10] 0.011
